For 19 compounds, cell viability results are on record in the supplement of paper PMC9744312.

Structures can show the parent of a compound that is named as a salt. The list shows a part of the results. Single values of this set are uncertain.

A word on the cell viability: it is a read-out of living cells in per cent, often relative to untreated cells.

In the test the test system is Peyronie's disease tunica albuginea primary fibroblasts. As to the kind of experiment: cell viability (DRAQ5 nuclear stain) relative to TGF-beta1-only control; higher = more viable cells. The conditions noted are these: 10 µM; TGF-beta1 10 ng/mL; 72 h.
As to `CN(C)CCOC(=O)COc1ccc(Cl)cc1` [Meclofenoxate (Centrophenoxine) HCl], the cell viability was 91%. The figure for `Brc1c(NC2=NCCN2)ccc2nccnc12` [Brimonidine Tartrate] is 91.2%; for `CC[C@@H]1/C=C(\C)C[C@H](C)C[C@H](OC)[C@H]2O[C@@](O)(C(=O)C(=O)N3CCCC[C@H]3C(=O)O[C@H](/C(C)=C/[C@@H]3CC[C@H](Cl)[C@H](OC)C3)[C@H](C)[C@@H](O)CC1=O)[C@H](C)C[C@@H]2OC` [Pimecrolimus] it is 101%; for `OC[C@H]1O[C@@H](O[C@@H]2[C@@H](CO)OC(O)(CO)[C@H]2O)[C@H](O)[C@@H](O)[C@H]1O` (mixture of isomers) [Lactulose] it is 86.7%.

As for `N[C@@H](C(=O)N[C@@H]1C(=O)N2C(C(=O)O)=C(Cl)CS[C@H]12)c1ccccc1` [Cefaclor], the cell viability was 96.8%. The figure for `CCCCCCCCN=c1ccn(CCCCCCCCCCn2ccc(=NCCCCCCCC)cc2)cc1` [Octenidine Dihydrochloride] is 35.6%.

As to `COc1ccc(C(=O)NCc2ccc(OCCN(C)C)cc2)cc1OC` [Itopride hydrochloride], the cell viability stood at 97.5%. Regarding `CCN(c1cc(-c2ccc(CN3CCOCC3)cc2)cc(C(=O)NCc2c(C)cc(C)[nH]c2=O)c1C)C1CCOCC1` [Tazemetostat (EPZ-6438)], the cell viability was determined as 91.8%. Under `Cn1c([N+](=O)[O-])cnc1COC(N)=O` [Ronidazole] stands 88.8%; under `CN(C)[C@@H]1C(O)=C(C(N)=O)C(=O)[C@@]2(O)C(O)=C3C(=O)c4c(O)ccc(Cl)c4[C@@H](O)[C@H]3C[C@@H]12` [Demeclocycline HCl], 84.7%.

As to `CCC1(c2c[nH]cn2)Cc2ccccc2C1` [Atipamezole], the cell viability came out at 91%. The figure for `CCC1(c2c[nH]cn2)Cc2ccccc2C1` [Atipamezole hydrochloride] is 97.1%; for `O=S(=O)(O)CCS` [Mesna] it is 83.1%. Under `CCn1cc(C(=O)O)c(=O)c2cnc(N3CCCC3)nc21` [Piromidic Acid] stands 96.3%; under `CCOc1ccccc1OCCN[C@H](C)Cc1ccc(OC)c(S(N)(=O)=O)c1` [Tamsulosin hydrochloride], 89.9%. Under `CCCCCCCCCCCCC[N+](C)(C)Cc1ccccc1` [Benzalkonium chloride] stands 55.2%; under `O=C(O)c1cc(-c2ccc(F)cc2F)ccc1O` [Diflunisal], 82.4%.

As for `CCCCNC(=O)NS(=O)(=O)c1ccc(C)cc1` [Tolbutamide], the cell viability turned out to be 96%.

For the compound `CCCS(=O)(=O)Nc1ccc(F)c(C(=O)c2c[nH]c3ncc(-c4ccc(Cl)cc4)cc23)c1F` [Vemurafenib (PLX4032, RG7204)], the cell viability turned out to be 89%.
